Experimental findings from patent US5688659 (dated 1997) are described below.

The data set in a line: general procedure: Fmoc solid-phase peptide synthesis; Wang resin (polystyrene/1% divinylbenzene), loading 0.50 mmol/g; dicyclohexylcarbodiimide / N-hydroxybenzotriazole. To be noted: whole synthesis, RP-HPLC, scale of the general procedure 5 g resin.

As to H-PESSELTTE-OH, the “crude HPLC purity” value was 54% and the “final HPLC purity” value came to 97.2%.
